Assay results: PubChem BioAssay AID504834 (National Center for Advancing Translational Sciences (NCATS), 2011)
Where “and” joins values, the source holds several entries; their conditions need not be identical. Identical values can stand only once. About 22,000 (6.9%) of roughly 320,000 compounds were called active. Inconclusive means that the source gave no clear call. Such entries were picked first, then a sample of the others. Calls come from the whole dose curve; as a rule, active = well fitted inhibition curve with a large enough effect; inconclusive = small, poorly fitted or top-dose-only effect, or another doubt; inactive = no such curve, though single readings can be large or run the other way. Potencies beside an inconclusive call are fits to weak or partial responses and may not hold up. Where a structure was tested more than once in an assay, its records may differ in their call.

assay: Primary qHTS for delayed death inhibitors of the malarial parasite plastid, 96 hour incubation; conditions: P. falciparum luciferase reporter growth; series mostly up to 28.7 µM
Outline: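 Two parasite generations (96 h, 37 C, 5% CO2) of compound exposure in infected erythrocytes (0.05% parasitemia, 2% hematocrit). Luciferase-reporter P. falciparum; decreased luminescence indicates inhibited growth, aimed at apicoplast-acting delayed death.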
Potency is the fitted concentration of half-maximal effect.

| SMILES | Potency |
| --- | --- |
| O=C(Cc1ccc(Br)cc1)N1CCOCC1 | inconclusive: 4.15 µM [inhibitor, single point] |
| NC(N)=N/N=C/c1c(Cl)cccc1Cl | inactive and active: 4.65 µM and active: 3.7 µM |
| O=C1CCc2cc(S(=O)(=O)NC(C(=O)N3CCN(c4ccccn4)CC3)c3ccccc3)ccc2N1 (stereo not drawn) | inconclusive: 10.4 µM [inhibitor, single point] |
| O=C(Cn1c(=O)sc2ccccc21)N1CCOCC1 | inconclusive: 18.5 µM [inhibitor, single point] |
| O=C(OCc1cn(Cc2ccccc2)nn1)c1ccccc1 | inactive |
| CCCc1nnc(SCC(=O)N2CCOCC2)n1CC1CCCO1 (stereo not drawn) | inconclusive: 18.5 µM [inhibitor, single point] |
| CCOC(=O)/C(C#N)=C/c1cn(CCC(=O)O)nc1-c1ccc(Cl)cc1 | inconclusive: 18.5 µM [inhibitor, single point] |
| CCCCn1nc2cc(C(=O)NC3CCc4ccccc43)ccc2c1OCC (stereo not drawn) | active: 8.28 µM |
| Cc1ccccc1Nc1nc(N)nc(CN(C)Cc2ccccc2Cl)n1 | inconclusive: 18.5 µM [inhibitor, single point] |
| COc1ccccc1C(=O)NC(CCSC)C(=O)NNC(=O)c1csc(N2CCOCC2)n1 (stereo not drawn) | inactive |
| Cc1ccc(N2C(=O)N3[C@H](c4ccc(F)cc4)[C@@H]4C(=O)N(C5CCCCC5)C(=O)[C@@H]4[C@]3(C)C2=O)cc1 | inconclusive: 18.5 µM [inhibitor, single point] |
| COc1ccc(OC)c(-c2csc(N(C)C(=O)Cc3ccccc3)n2)c1 | inconclusive: 11.7 µM [inhibitor, partial curve, poor fit] |
| COc1ccccc1CNC(=O)[C@@H]1CCCN1C(=O)[C@@H]1Cc2ccccc2CN1C(=O)OC(C)(C)C | inconclusive: 18.5 µM [inhibitor, single point] |
| COc1cc(CCN)ccc1O | inconclusive: 18.5 µM [inhibitor, single point] |
| COc1ccc(C2CC(c3ccccc3)=NN2c2ccc(/C=N/NC(=O)c3ccncc3)cc2)cc1 (stereo not drawn) | inconclusive: 11.7 µM [inhibitor, single point] |
| O=C(CSc1nnc(-c2ccccc2O)n1Cc1ccccc1)NNC(=O)c1ccccc1O | inactive |
| CN(C)CCC=C1c2ccccc2C=Cc2ccccc21 | inconclusive: 13.5 µM [inhibitor, single point] and inconclusive: 16.5 µM [inhibitor, partial curve, poor fit] |
| CC(C)Nc1nc(NC(C)C)nc(N(C#N)CCOc2ccc(Cl)cc2Cl)n1 | inconclusive: 18.5 µM [inhibitor, single point] |
